In article PMC3214027, “Honey Bee Dopamine and Octopamine Receptors Linked to Intracellular Calcium Signaling Have a Close Phylogenetic and Pharmacological Relationship” (PLoS ONE, 2011) one finds IC50 data, which are given here for 1 compound.

By UniProt entry, the sequences of proteins in these tests, tags left out. Residues count along the entry.
UniProt Q9NG02, 1-399: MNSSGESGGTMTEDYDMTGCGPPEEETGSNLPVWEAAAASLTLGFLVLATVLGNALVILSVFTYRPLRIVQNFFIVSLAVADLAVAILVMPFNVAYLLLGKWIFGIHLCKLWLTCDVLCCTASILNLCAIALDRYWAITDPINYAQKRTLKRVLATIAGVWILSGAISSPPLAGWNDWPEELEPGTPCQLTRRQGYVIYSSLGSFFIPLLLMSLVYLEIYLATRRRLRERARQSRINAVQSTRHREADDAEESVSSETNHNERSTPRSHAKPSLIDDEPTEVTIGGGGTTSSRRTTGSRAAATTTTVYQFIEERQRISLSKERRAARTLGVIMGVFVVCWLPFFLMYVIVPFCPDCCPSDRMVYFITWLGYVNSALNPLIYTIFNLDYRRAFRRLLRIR

This test addresses T1, AmTYR1 (Apis mellifera, UniProt Q9NG02).
T1 construct: gene TyrR
Conditions: read-out: RECEPTOR / AmTYR1; antagonist; against 1 µM agonist (not named); 100 nM forskolin; 3 h treatment.

Turning to `CN1CCN2c3ccccc3Cc3ccccc3C2C1` (stereo not shown) [mianserin], the IC50 stood at 73 µM.
